Assay results: article PMC6562422, “Huzhangoside A Suppresses Tumor Growth through Inhibition of Pyruvate Dehydrogenase Kinase Activity” (Cancers, 2019)
No constants are given. Whether binding was seen depends on the method and setting. Binding seen in cells or lysates may run through a third protein. Some entries that bind do so weakly or less than the wild type.

Amino acid sequences for entries named in this document (tags omitted). Residues count along the entry.
UniProt Q15118, residues 29-436: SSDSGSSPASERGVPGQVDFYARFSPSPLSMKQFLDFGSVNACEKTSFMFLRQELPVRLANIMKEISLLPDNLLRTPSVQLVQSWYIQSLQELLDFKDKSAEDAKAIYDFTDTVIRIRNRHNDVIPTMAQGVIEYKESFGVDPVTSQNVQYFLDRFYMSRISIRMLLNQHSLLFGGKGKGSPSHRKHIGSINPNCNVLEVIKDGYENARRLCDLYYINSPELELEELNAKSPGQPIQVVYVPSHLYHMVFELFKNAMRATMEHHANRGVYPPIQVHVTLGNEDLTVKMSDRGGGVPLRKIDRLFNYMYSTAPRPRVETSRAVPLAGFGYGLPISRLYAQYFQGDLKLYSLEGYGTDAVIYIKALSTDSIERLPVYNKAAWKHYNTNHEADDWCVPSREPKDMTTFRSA

Biological target: glutathione S-transferase (GST)-conjugated-PDHK1 (human) (UniProt Q15118)
Test: pull-down; GST-PDHK1 from transfected HEK293T lysate held on Glutathione Sepharose 4B beads, washed; HEK293T whole cell lysate added with/without 500 uM Hu.A; western blot; only the target purified

- binding: binds
B1: PDC E2 subunit (dihydrolipoamide acetyltransferase) (protein, UniProt P10515 87-647)
chain: SLPPHQKVPLPSLSPTMQAGTIARWEKKEGDKINEGDLIAEVETDKATVGFESLEECYMAKILVAEGTRDVPIGAIICITVGKPEDIEAFKNYTLDSSAAPTPQAAPAPTPAATASPPTPSAQAPGSSYPPHMQVLLPALSPTMTMGTVQRWEKKVGEKLSEGDLLAEIETDKATIGFEVQEEGYLAKILVPEGTRDVPLGTPLCIIVEKEADISAFADYRPTEVTDLKPQVPPPTPPPVAAVPPTPQPLAPTPSAPCPATPAGPKGRVFVSPLAKKLAVEKGIDLTQVKGTGPDGRITKKDIDSFVPSKVAPAPAAVVPPTGPGMAPVPTGVFTDIPISNIRRVIAQRLMQSKQTIPHYYLSIDVNMGEVLLVRKELNKILEGRSKISVNDFIIKASALACLKVPEANSSWMDTVIRQNHVVDVSVAVSTPAGLITPIVFNAHIKGVETIANDVVSLATKAREGKLQPHEFQGGTFTISNLGMFGIKNFSAIINPPQACILAIGASEDKLVPADNEKGFDVASMMSVTLSCDHRVVDGAVGAQWLAEFRKYLEKPITMLL
